We go through 2 sequences from PMC12120893.

Construct, isoform or probe ends are uncertain for at least one entry. For some assays here: At least one verdict rests on a figure or table, not on a statement of the authors.

For data set [1], the system named is CtAP2/ERF4 (Cymbidium tracyanum). Kind of data set: EMSA. As to conditions: 50x and 200x unlabeled competitor used; Beyotime EMSA/Gel-Shift kit per manufacturer; pH and temperature not stated; recombinant protein; protein details: His (pET-32a fusion); label: 5' biotin. Background: Mobility shift assays separate free from complexed probe on a gel.
The subject of data set [2] is CtAP2/ERF1 (Cymbidium tracyanum). Kind of data set: EMSA. Particulars: 50x and 200x unlabeled competitor used; Beyotime EMSA/Gel-Shift kit per manufacturer; pH and temperature not stated; recombinant protein; protein details: His (pET-32a fusion); label: 5' biotin.

With “CATGTAGCCGACCCCACTTA (double strand) [pCtTPS2 -702/-721 (AP2 element)]”, the binding result in data set [1] was “binds”.
On to “GTCTCACGACCAGGATTTCC (double strand) [pCtTPS1 -868/-887 (AP2 element)]”, for which, in data set [2], the binding result is on record as “binds”.
